Our source for the cell number change and AC50 values is PubChem BioAssay AID2685 (National Center for Advancing Translational Sciences (NCATS), 2010).

This experiment in a line: qHTS Assay for Lipid Storage Modulators in Drosophila S3 Cells.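 On cell number change: cells counted by Cell Tracker Red CMTPX staining in the red channel.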 The conditions noted are these: BODIPY lipid droplet fluorescence, 18-24 h; for cell number change: measured here: cell count max response, cells fed with added oleic acid. In short, it runs like this:
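Drosophila S3 cells loaded with oleic acid (400 uM, as added) and compounds at several concentrations; lipid droplets imaged by 488-nm laser-scanning cytometry, 500–530 nm intensity and object ratio to cell channel. Percent activity normalized to 20 uM Triacsin C.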
(qHTS replaces the single test concentration by a dilution series.)

Setting [1] is: measured here: lipid fluorescence (Fed channel) AC50, cells fed with added oleic acid.
Where [2] appears, read: measured here: cell number channel AC50, cells fed with added oleic acid.

The other results are listed elsewhere or left out. These are further read-outs of the screen, such as a control signal, another cell line or another target. No call is given for them. Most of these compounds were active or inconclusive in the main read-out, so they are no random draw. Words in brackets tell the shape of the fitted curve; partial curves, single points and poor fits give uncertain potencies.

The AC50 is the concentration at which the activity in the assay is half-maximal. As for `CCN(CC)S(=O)(=O)c1cccc(NC(=O)c2cccc(S(=O)(=O)N3CCCC3)c2)c1`, the cell number change came out at 7.07%. Moreover, the AC50 under setting [1] was 0.0116 µM [falling, full curve, poor fit].

On to `NC(=O)c1ccc[n+](Cc2cccc3ccccc23)c1`, for which the cell number change stood at 15.8%. In addition, under setting [2], the AC50 was 0.146 µM [falling, full curve, poor fit].

For `CC(C)Cn1c(-c2cccs2)nc2ccccc21`, the cell number change is 12.6%. Further, the half-maximal activity concentration (AC50) under setting [1] is 0.146 µM [rising, full curve].

In the case of `Clc1ccc(Nc2nc3cccnc3s2)cc1`, the cell number change was determined as 46%. Besides, the AC50 under setting [2] was 2.06 µM [falling, single point].

`Cc1ccc(C2c3c(oc4ccccc4c3=O)C(=O)N2CCCN2CCOCC2)o1` (stereo not given): the cell number change amounted to 10.8%. In addition, under setting [1], the AC50 is 18.4 µM [falling, partial curve].

As to `O=[N+]([O-])c1ccc(Cl)cc1Sc1ccccn1`, the AC50 under setting [1] is 29.1 µM [falling, single point].

As for `CC12CCC(C(=O)N3CCOCC3)([C@H](Br)C1=O)C2(C)C` (stereo not given in full), the cell number change is -37.3%. Moreover, the AC50 under setting [2] was 25.9 µM [falling, partial curve, poor fit]. In addition, the AC50 under setting [1] was 7.31 µM [falling, partial curve].

Take `CCOc1ccc(C(=O)COC(=O)c2c(-c3ccccc3)noc2C)cc1`: the AC50 under setting [1] is 6.51 µM [rising, single point].

As to `Cc1ccc(CNn2cnnc2SCC(=O)NC(C)(C)C)cc1`, the cell number change was found to be 17.1%. In addition, the AC50 under setting [1] was 4.61 µM [falling, single point].

Turning to `COc1cc(NC(=O)C(C)Oc2ccccc2)c(OC)cc1NC(=O)c1ccccc1` (stereo not given), the cell number change is -39.4%. Further, the AC50 under setting [2] is 20.6 µM [falling, single point]. Further, the AC50 under setting [1] is 23.1 µM [falling, single point].

In the case of `CCOC(=O)c1c(C)c(C(=O)NCc2ccccn2)c(C)n1CC`, the AC50 under setting [2] is 5.8 µM [rising, single point] and the AC50 under setting [1] is 4.11 µM [rising, partial curve, poor fit].

Consider `CC(C)OCCCNc1nc2c(c(=O)n(Cc3ccccc3F)c(=O)n2C)n1C`, for which the cell number change was determined as 40.2%. Moreover, the AC50 under setting [2] is 1.3 µM [rising, full curve]. For the same molecule, the AC50 under setting [1] was 18.4 µM [rising, partial curve].

Regarding `O=C(c1c[nH]c2ccccc12)N1CCN(c2ccccc2)CC1`, the cell number change came out at 21.6%. For the same molecule, the AC50 under setting [1] was 5.8 µM [rising, full curve, poor fit].

On to `O=C(NCc1cccs1)C1CCCN1S(=O)(=O)c1ccccc1F` (stereo not given), for which the cell number change was 1.89%.

As to `O=C(c1ccccc1)N1CCN(c2ccc(Cl)cc2)CC1`, the cell number change was -33.8%. In addition, the AC50 under setting [2] is 16.4 µM [falling, partial curve, poor fit]. For the same molecule, the AC50 under setting [1] was 25.9 µM [falling, single point].

As for `Cc1ccc(N2CC(C(=O)Nc3nnc(SCCN4CCOCC4)s3)CC2=O)cc1` (stereo not given), the cell number change was determined as 35.3%.

Regarding `CC1=NN(c2nc(-c3ccc(C)cc3)cs2)C(=O)C1N=Nc1ccccc1O` (stereo not given), the cell number change came to 21.8%.

With `COc1ccccc1-c1nnc(SCC(=O)O)n1-c1ccccc1`, the cell number change is -32.3%. The AC50 under setting [2] is 29.1 µM [falling, single point]. Further, the AC50 under setting [1] is 20.6 µM [falling, single point].

Consider `COc1ccc(C(CC(=O)Nc2cc(C)ccn2)N2Cc3ccccc3C2=O)cc1` (stereo not given), for which the cell number change amounted to 39%. Moreover, the AC50 under setting [2] was 1.46 µM [rising, partial curve]. For the same molecule, the AC50 under setting [1] was 29.1 µM [rising, single point].

With `O=C(OCCN1CCOCC1)c1ccc2c(c1)OCCO2`, the cell number change is 0.86%. Moreover, under setting [1], the AC50 was 0.651 µM [falling, full curve].

As for `COc1cc(/C=N/NC(=O)c2cc3ccccc3cc2O)ccc1OCCN1CCCCC1`, the cell number change is 11%.

Regarding `CCc1ccc(NC(=O)c2cc(C(C)C)on2)cc1`, the cell number change is -6.98%.

Take `COc1ccc(-n2c(-c3ccc(Br)cc3)nc(=S)c3c2CCCC3)cc1`: the cell number change turned out to be 11.5%. The AC50 under setting [1] is 0.058 µM [rising, full curve, poor fit].

Consider `CCOc1nnc(C)c2c(C)n(-c3cccc(OC)c3)nc12`, for which, under setting [1], the AC50 is 0.731 µM [rising, partial curve, poor fit].

Turning to `COc1ccc(/C(C)=N/NC(=O)c2ccc(N(C)C)cc2)cc1`, the cell number change amounted to 31.1%. The AC50 under setting [2] is 0.291 µM [rising, full curve, poor fit]. For the same molecule, under setting [1], the AC50 is 20.6 µM [rising, single point].

On to `CC(c1ccccc1)C(Cc1nc2ccccc2[nH]1)c1nc2ccccc2[nH]1` (stereo not given), for which the cell number change is -31.3%. Further, the AC50 under setting [2] was 6.51 µM [falling, partial curve]. The AC50 under setting [1] was 16.4 µM [falling, single point].

As to `CCCNC(=O)NC(C(=O)OC)C12CC3CC(CC(C3)C1)C2` (stereo not given), the cell number change worked out at 14%. In addition, under setting [1], the AC50 was 18.4 µM [falling, partial curve].

`COc1ccc2nc(NC(=O)c3cccc(OCc4c(C)noc4C)c3)sc2c1`: the cell number change is -12.4%. Besides, the AC50 under setting [1] is 0.00517 µM [rising, full curve, poor fit].

Turning to `N#Cc1c(-c2ccco2)nc(SCC(=O)Nc2ccc(S(N)(=O)=O)cc2)[nH]c1=O`, the cell number change is -37.9%. Besides, the AC50 under setting [2] was 9.2 µM [falling, partial curve]. The AC50 under setting [1] was 8.2 µM [falling, partial curve].

Turning to `O=C(/C=C/c1ccc(S(=O)(=O)N2CCOCC2)cc1)NCc1ccccc1F`, the cell number change came out at 2.14%. Besides, under setting [2], the AC50 is 0.731 µM [rising, full curve, poor fit]. Moreover, the AC50 under setting [1] was 0.58 µM [rising, full curve].

Turning to `CC(C)(C)CC(=O)NC(=S)NCc1ccco1`, the cell number change turned out to be 1.19%. Also, the AC50 under setting [2] is 1.16 µM [rising, single point]. The AC50 under setting [1] was 1.16 µM [rising, single point].

As to `COc1ccc(-c2nc(NC(=O)CSc3nnc(C)s3)ns2)cc1`, the AC50 under setting [1] was 29.1 µM [rising, partial curve].

Take `CCNC(=S)N1CCN(CCN2C(=O)c3cccc4cccc(c34)C2=O)CC1`: the cell number change was -3.14%. Also, under setting [1], the AC50 was 32.6 µM [falling, single point].

With `CC1(C)OC(=O)N(NCc2ccccc2)C1(C)O` (stereo not given), the cell number change was 15%.

Take `CCN1/C(=C/c2sc(-c3ccccc3C)c[n+]2C)Sc2ccccc21`: the cell number change was -77.5%. For the same molecule, the AC50 under setting [2] was 1.64 µM [falling, full curve]. For the same molecule, the concentration at half-maximal activity (AC50) under setting [1] is 1.3 µM [falling, full curve].

With `CCc1c(C)sc(NC(=O)CC#N)c1C#N`, the cell number change came out at 2.16%. Moreover, the AC50 under setting [1] is 29.1 µM [rising, single point].

As for `CCOc1cc(NC(=O)c2cnccn2)c(OCC)cc1NC(=O)c1cccc(F)c1`, the cell number change is -14.6%. In addition, under setting [1], the AC50 is 32.6 µM [falling, single point].

Consider `CCN(CC)CCNc1nc2c(c(=O)[nH]c(=O)n2C)n1CC(O)COc1ccc(Cl)cc1Cl` (stereo not given), for which the cell number change is 30.5%. The AC50 under setting [2] was 29.1 µM [rising, single point].

Turning to `C/C=C/Cn1cccc(C(=O)Nc2ccc(OC)cc2)c1=O`, the cell number change was 70.4%. For the same molecule, under setting [2], the AC50 is 0.82 µM [rising, full curve, poor fit]. Moreover, under setting [1], the AC50 was 6.51 µM [rising, single point].

On to `Clc1ccccc1CSc1cc2c(nn1)-c1ccccc1CC2`, for which the cell number change amounted to 22.3%.

Turning to `COc1ccccc1NC(=O)C(C)Sc1nc(-c2ccccc2)cn1N` (stereo not given), the cell number change is -5.32%. The AC50 under setting [1] was 29.1 µM [rising, single point].

For `Cc1cnc(C(=O)Nc2ccc(OC(F)(F)F)cc2)cn1`, the cell number change was -26.8%. Further, under setting [1], the AC50 is 6.51 µM [rising, single point].

Consider `COc1ccc(N2CCN(C(=O)c3cccs3)CC2)cc1`, for which the cell number change was -16.6%. Moreover, the AC50 under setting [1] is 6.51 µM [rising, single point].

Consider `CCc1ccc(-c2nc(CS(=O)CC(=O)NC3CC3)c(C)o2)cc1` (stereo not given), for which the cell number change turned out to be 32.8%. Under setting [2], the AC50 was 5.8 µM [rising, partial curve].

As to `CCCCOc1cccc(C(=O)Nc2ccc(N3CCN(CC)CC3)cc2)c1`, the cell number change turned out to be 92.1%. For the same molecule, under setting [2], the AC50 is 23.1 µM [rising, single point]. For the same molecule, the AC50 under setting [1] is 16.4 µM [rising, partial curve].

On to `CC(=O)N1CCN(c2ccccc2NC(=O)c2cccs2)CC1`, for which the cell number change is 0.64%.

Turning to `O=[N+]([O-])c1ccc(-n2nnnc2-c2ccccc2)c([N+](=O)[O-])c1`, the cell number change is -57.5%. Moreover, the concentration at half-maximal activity (AC50) under setting [2] was 23.1 µM [falling, partial curve]. Moreover, the AC50 under setting [1] was 0.651 µM [rising, partial curve, poor fit].

`Cc1cccc(OCC(=O)NCCNC(=O)c2ccccn2)c1`: the cell number change is -2.86%.

For the molecule `CCOc1ccc(N(C)S(=O)(=O)c2ccc(-c3ccc(=O)[nH]n3)s2)cc1`, the cell number change is 30%. The AC50 under setting [2] was 18.4 µM [rising, single point]. Under setting [1], the AC50 was 2.31 µM [rising, single point].

For the molecule `CCC(O)(CC)C(=O)N/N=C/c1cc(Br)cc(Br)c1O`, the cell number change is -3.98%. Moreover, the AC50 under setting [1] was 0.00651 µM [falling, full curve].

In the case of `CCN(/N=C/c1ccccc1)c1cc(=O)n(C)c(=O)[nH]1`, the cell number change is 2.38%. Further, the AC50 under setting [1] was 1.16 µM [falling, single point].

`Cc1ccccc1Nc1nnc(SCC(=O)c2ccc(O)cc2O)s1`: the cell number change was found to be 24.6%. Moreover, the AC50 under setting [1] was 1.3 µM [rising, full curve].

Consider `Cc1cc(C(=O)N/N=C/c2cc(Br)c(Br)o2)n[nH]1`, for which the cell number change was found to be 20.3%. Besides, the AC50 under setting [1] is 6.51 µM [rising, single point].

For the molecule `CCc1nn(CCCC(=O)NCc2ccc(C)cc2)c(=O)c2cc3occc3n12`, the cell number change is -15.7%. Besides, under setting [1], the AC50 is 0.731 µM [falling, single point].

`CCOC(=O)C1=C(O)CSC1=Nc1cccc2ccccc12`: the cell number change is -13.1%. Further, the AC50 under setting [2] is 3.26 µM [falling, single point]. The AC50 under setting [1] was 2.31 µM [rising, single point].

Turning to `CCCCOc1ccc(C2C(C(=O)c3ccc(C)o3)=C(O)C(=O)N2Cc2ccco2)cc1` (stereo not given), the cell number change stood at 70.8%. Further, the AC50 under setting [2] is 20.6 µM [rising, partial curve, poor fit].

Take `Cc1onc(-c2ccc(Cl)cc2)c1-c1ccnn1S(=O)(=O)c1cccc(C(F)(F)F)c1`: the cell number change was 3.96%. In addition, the AC50 under setting [1] was 2.59 µM [rising, partial curve].

For the molecule `Cc1ccc(COc2ccc(/C=N/O)cc2)cc1`, the cell number change is -5.49%. Further, under setting [1], the AC50 was 1.3 µM [rising, partial curve].
